No constants are given. Whether binding was seen depends on the method and setting. Some results given as binding are weak or reduced against the parent protein; the word gives no strength. Sequences can lack the tags named with a protein.
T1: ARTN protein (Novoprotein, Cat# CR34) (human) (UniProt Q5T4W7)
T1 sequence (looked up): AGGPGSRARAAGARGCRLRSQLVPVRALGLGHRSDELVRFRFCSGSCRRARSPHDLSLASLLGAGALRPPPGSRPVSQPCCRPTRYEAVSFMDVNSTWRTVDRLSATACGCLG

T2: NRTN protein (Novoprotein, Cat# CE27) (human) (UniProt Q99748)
T2 sequence (looked up): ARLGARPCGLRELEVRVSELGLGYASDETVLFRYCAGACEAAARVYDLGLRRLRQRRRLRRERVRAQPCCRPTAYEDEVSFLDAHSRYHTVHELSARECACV

T3: human GDF15 protein (Novoprotein, Cat# DRA26) (human) (UniProt Q99988)
T3 sequence (looked up): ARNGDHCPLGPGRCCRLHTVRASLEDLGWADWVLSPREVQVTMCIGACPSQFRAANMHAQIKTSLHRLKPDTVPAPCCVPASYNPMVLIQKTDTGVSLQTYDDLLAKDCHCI


How the values were obtained:
[1] = target: T1, ARTN protein (Novoprotein, Cat# CR34) (human); test: ELISA, ARTN coated, antibody from 2,000 nM
[2] = target: T2, NRTN protein (Novoprotein, Cat# CE27) (human); test: ELISA, NRTN coated, antibody from 2,000 nM
[3] = target: T3, human GDF15 protein (Novoprotein, Cat# DRA26) (human); test: ELISA, human GDF15 coated

| binding [1] | binding [2] | binding [3] | Binder |
| --- | --- | --- | --- |
| binds | binds |  | LN05 GDF15 heavy chain single-domain antibody (full-length, VHH joined to human IgG1 Fc) (antibody, V domains shown, expressed in CHO cells, Protein A purified; No light chain; also called LN05 full-length) VH: QVQLVESGGGLVQPGGSLRLSCAASGFTLDYYAIGWFRQAPGKGREGVSCISSNDGSTYYSDSVKGRFTTSRDNAKNTVYLQMNSLKPEDTAVYYCAADLTPCPVNPSVDHYWGQGTQVTVSS |
| binds | binds |  | LN13 GDF15 heavy chain single-domain antibody (full-length, VHH joined to human IgG1 Fc) (antibody, V domains shown, expressed in CHO cells; No light chain; also called LN13 full-length) VH: QLQLVESGGGLVQPGGSLRLSCAASGFTLDYYAIGWFRQAPGKGPEAVSCISSSDGSTYYSDSVKGRFTISRDNAKNTVYLQMNSLKPEDTAVYYCAAGEYGSDCPVQVGSWGQGTQVTVSS |
|  |  | binds | LN11 GDF15 heavy chain single-domain antibody (VHH joined to human IgG1 Fc) (antibody, V domains shown) VH: QVQLVESGGGLVQPGGSLRLSCAASGFTIRTYTMSWYRQAPGKERALVAYITPGGPTYHIDSVKGRFTISRNNAENTVYLQMNSLKPEDTAVYYCGNGFGSWGQGTQVTVSS |
| binds | binds |  | LN25 GDF15 heavy chain single-domain antibody (full-length, VHH joined to human IgG1 Fc) (antibody, V domains shown, expressed in CHO cells; No light chain; also called LN25 full-length) VH: QLQLVESGGGEVQPGGSLRLSCAASGATLDDLSIGWFRQAPGKGLEGVSCISSSDGSTYYADSVKGRFTISRDNAKNTAYLQMNSLRPEDTAVYYCAADREDCPVQPWGIVAGTSRGQGTQVTVSS |
| binds | binds |  | LN06 GDF15 heavy chain single-domain antibody (full-length, VHH joined to human IgG1 Fc) (antibody, V domains shown, expressed in CHO cells; No light chain; also called LN06 full-length) VH: QLQLVESGGGLVQPGGSLRLSCVASGFTLDDYAIGWFRQAPGKGLEGVSCISSSDESTYYADSVKGRFTISRDNAKNTAYLQMNSLKPEDTAIYYCAADTECPVQVTSMAWGQGTQVTVSS |
